# Assay results from publication PMC7836002.
# Chains of the proteins cited; added tags and fusions are not shown.
# UniProt P03129: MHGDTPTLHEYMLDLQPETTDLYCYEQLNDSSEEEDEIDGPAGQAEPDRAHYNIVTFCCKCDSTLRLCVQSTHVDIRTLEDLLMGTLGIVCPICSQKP
# No constants are given. Whether binding was seen depends on the method and setting. In cells and extracts the contact can be indirect. Some results given as binding are weak or reduced against the parent protein; the word gives no strength.
# Biological target: T1, PTPN14 (human (endogenous in C33A)) (UniProt Q15678)
# T1 sequence: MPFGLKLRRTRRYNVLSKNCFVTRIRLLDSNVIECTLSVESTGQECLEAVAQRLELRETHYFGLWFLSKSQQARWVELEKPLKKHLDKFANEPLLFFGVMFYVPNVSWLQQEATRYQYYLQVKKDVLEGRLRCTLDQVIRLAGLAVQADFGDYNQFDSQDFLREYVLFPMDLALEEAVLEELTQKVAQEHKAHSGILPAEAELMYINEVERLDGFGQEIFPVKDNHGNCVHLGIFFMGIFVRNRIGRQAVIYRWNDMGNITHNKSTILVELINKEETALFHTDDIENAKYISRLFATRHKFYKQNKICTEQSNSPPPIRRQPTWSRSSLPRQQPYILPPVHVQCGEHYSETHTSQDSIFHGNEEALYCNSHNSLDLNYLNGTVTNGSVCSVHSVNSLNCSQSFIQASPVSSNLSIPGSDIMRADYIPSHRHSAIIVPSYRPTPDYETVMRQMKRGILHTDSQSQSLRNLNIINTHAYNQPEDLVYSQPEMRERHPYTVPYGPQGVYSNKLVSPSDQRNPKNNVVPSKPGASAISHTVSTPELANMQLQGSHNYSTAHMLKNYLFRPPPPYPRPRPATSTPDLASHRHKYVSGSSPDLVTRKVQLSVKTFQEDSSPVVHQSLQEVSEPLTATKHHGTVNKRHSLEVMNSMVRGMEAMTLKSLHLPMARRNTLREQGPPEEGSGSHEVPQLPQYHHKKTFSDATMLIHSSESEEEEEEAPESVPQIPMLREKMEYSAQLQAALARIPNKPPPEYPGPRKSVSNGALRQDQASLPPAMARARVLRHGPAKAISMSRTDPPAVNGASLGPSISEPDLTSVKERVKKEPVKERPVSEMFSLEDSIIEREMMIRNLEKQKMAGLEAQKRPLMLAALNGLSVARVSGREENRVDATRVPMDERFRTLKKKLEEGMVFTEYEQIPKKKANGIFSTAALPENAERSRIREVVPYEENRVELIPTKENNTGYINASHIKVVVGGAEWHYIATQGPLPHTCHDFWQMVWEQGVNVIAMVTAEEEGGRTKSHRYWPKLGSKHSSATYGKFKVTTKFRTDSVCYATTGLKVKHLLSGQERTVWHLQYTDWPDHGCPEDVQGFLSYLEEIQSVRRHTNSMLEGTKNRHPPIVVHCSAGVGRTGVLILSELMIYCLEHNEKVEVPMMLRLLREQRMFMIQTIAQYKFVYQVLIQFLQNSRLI
# Assay: FRET or BRET
substance,measurement,value
HPV16E7 wild-type (from UniProt P03129 1-98),binding,binds
